{"source": "patent US20260055150A1", "about": "“GRAIL-1 PEPTIDE PRODUCTS AND METHODS” (REGENTS OF THE UNIVERSITY OF MICHIGAN, priority 2022, published 2026)", "binders": {"B1": {"name": "Pep 28 (TAT-less Pep 9, CKVPPWR) (peptide)", "peptide": "CKVPPWR"}}, "target": "recombinant purified DNAJA1 (purified HSP40 protein) (UniProt P31689)", "assay": "peptide pull-down, TAT-less peptide on NHS-activated Sepharose beads, anti-His Western blot", "note": "No constants are given. Whether binding was seen depends on the method and setting. Binding seen in cells or lysates may run through a third protein. Some results given as binding are weak or reduced against the parent protein; the word gives no strength."}
{"binder": "B1", "values": [{"measurement": "binding", "result": "binds"}]}
